This note sets out measurements from article PMC11161108.

Amino acid sequences for entries named in this document (tags omitted). Residues count along the entry.
UniProt P01591, residues 23-159: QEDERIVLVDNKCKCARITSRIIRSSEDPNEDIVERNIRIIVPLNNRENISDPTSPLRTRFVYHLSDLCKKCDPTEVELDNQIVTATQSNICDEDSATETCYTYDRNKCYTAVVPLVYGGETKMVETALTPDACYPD

The target in the assay is human joining chain (J-chain) (human) (UniProt P01591). Description: non-reducing SDS-PAGE and Western blot (disulfide-linked assembly); day-7 culture media of HEK293 cells transfected with one, two or three subunit constructs; LDS sample buffer with 2 mM N-ethylmaleimide, no reducing agent, 75°C 5 min; Coomassie or blots with anti-IgM (H+L), anti-λLC or anti-JC; only covalent (disulfide) links survive the SDS.

No constants are given. Whether binding was seen depends on the method and setting. Some results given as binding are weak or reduced against the parent protein; the word gives no strength.

As for “human joining chain (J-chain) (from UniProt P01591 23-159)”, the binding result is on record as “binds”.
